According to PMC10328928:
No constants are given. Whether binding was seen depends on the method and setting. Some results given as binding are weak or reduced against the parent protein; the word gives no strength.

Chains of the proteins cited; added tags and fusions are not shown. Residues count along the entry.
UniProt Q93034, residues 12-780: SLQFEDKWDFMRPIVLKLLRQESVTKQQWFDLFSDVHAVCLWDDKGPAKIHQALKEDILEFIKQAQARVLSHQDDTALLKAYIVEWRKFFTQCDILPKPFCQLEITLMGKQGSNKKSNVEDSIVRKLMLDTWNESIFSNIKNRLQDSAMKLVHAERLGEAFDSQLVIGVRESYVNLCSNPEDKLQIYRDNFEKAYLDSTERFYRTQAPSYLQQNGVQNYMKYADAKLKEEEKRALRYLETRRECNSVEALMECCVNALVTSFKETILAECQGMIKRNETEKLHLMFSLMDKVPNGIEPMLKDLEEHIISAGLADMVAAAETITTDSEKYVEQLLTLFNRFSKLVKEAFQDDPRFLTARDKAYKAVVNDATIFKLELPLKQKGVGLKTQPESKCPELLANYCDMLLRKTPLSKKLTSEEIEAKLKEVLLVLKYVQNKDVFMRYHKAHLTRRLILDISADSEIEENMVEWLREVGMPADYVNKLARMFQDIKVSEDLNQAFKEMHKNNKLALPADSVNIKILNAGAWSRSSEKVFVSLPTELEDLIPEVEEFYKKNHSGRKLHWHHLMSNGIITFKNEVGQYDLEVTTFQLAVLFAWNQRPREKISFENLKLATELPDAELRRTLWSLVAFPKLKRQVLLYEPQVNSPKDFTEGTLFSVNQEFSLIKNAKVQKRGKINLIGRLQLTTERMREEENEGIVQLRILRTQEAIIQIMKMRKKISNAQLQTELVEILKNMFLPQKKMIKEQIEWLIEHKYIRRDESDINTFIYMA
UniProt Q9UBF6: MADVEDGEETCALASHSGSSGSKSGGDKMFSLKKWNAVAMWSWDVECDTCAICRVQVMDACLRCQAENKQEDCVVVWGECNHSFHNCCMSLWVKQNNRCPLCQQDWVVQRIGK

Biological target: human cullin-5, CUL5 (amino acid residues S12 to A780) (human) (UniProt Q93034)
Test: co-expression and co-purification

Which binding does the source give for “human RING-box protein 2, Rbx2 (M1 to K113) (from UniProt Q9UBF6 1-113)” here?
Its binding is “binds”.
